Source: PMC11286746
Results are given in words; binding and its absence hold for the method and conditions named. For some assays here: Binding seen in cells or lysates may run through a third protein. Some results given as binding are weak or reduced against the parent protein; the word gives no strength. Sequences can lack the tags named with a protein.

By UniProt entry, the sequences of proteins in these tests, tags left out.
UniProt Q9UNE7: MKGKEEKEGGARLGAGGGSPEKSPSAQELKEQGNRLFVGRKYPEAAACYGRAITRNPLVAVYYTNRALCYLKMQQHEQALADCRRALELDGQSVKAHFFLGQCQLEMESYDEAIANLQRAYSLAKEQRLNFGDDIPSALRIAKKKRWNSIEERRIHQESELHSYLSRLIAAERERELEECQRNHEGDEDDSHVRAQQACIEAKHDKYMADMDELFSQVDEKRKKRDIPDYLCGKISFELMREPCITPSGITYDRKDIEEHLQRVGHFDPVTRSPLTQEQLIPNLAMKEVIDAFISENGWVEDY

Tests used:
[1] = molecular target: T1, HA-tagged wild-type BCAT1 (branched-chain amino acid transaminase 1) (UniProt P54687); test: co-IP; U251 cells transfected with HA-BCAT1 and Flag-tagged CHIP (wild type or truncated mutants); NP-40 lysis buffer, 1 ug antibody and protein A/G agarose beads, 4 °C, 8 h; western blot
T1 sequence: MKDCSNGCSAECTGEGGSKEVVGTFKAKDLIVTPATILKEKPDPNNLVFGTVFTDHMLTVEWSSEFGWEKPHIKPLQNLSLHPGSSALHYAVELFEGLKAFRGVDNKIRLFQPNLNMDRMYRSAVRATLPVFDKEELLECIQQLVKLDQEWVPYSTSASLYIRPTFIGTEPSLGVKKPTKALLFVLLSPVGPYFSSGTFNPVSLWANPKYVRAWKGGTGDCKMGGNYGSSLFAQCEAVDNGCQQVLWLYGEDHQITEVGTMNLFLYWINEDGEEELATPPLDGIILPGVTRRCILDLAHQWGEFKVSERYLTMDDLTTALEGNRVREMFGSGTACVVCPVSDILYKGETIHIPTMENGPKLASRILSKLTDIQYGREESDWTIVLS

[2] = molecular target: T2, GST-BCAT1 protein (#Ag4574, Proteintech) (UniProt P54687); test: pull-down; GST or GST-BCAT1 on glutathione magnetic beads incubated with recombinant CHIP protein at 4 °C for 2 h; washed thrice with PBS; western blot; both purified
T2 sequence: T1 sequence

Row | Substance | binding [1] | binding [2]
1 | Flag-tagged wild-type CHIP (Carboxyl terminus of Hsc70-interacting protein) (from UniProt Q9UNE7 1-303) (enzyme) | binds | –
2 | recombinant CHIP protein (#HY-P71340, MedChemExpress) (from UniProt Q9UNE7 1-303) (enzyme) | – | binds
